Measured values published in PubChem BioAssay AID1918952 (Molecular Pharmacology Branch, DTP, NCI, 2023).
Values joined by “and” are separate entries in the source; they are usually repeats but may differ in a detail not shown here. Identical values can stand only once. The source gives many values for each of these; only a part stands here.

Test system: LG0703-F948-PDC complex spheroid viability
Experiment: Anticancer human tumor LG0703-F948-PDC patient-derived lung adenocarcinoma cell line growth inhibition
Details: hits give low values
Text: Multicellular complex tumor spheroid response to LSD1 Inhibitor Iadademstat in combination with a variety of drugs and investigational agents in selected tumor cell lines
The current study was undertaken to assess response to LSD1 inhibitors in combination with standard-of-care drugs and investigational agents in solid tumor complex spheroid models as well as in the K-562 leukemia. Complex spheroids include a stromal component modeled by human endothelial cells (HUVEC) and fibroblasts modeled by human mesenchymal stem cells (MSCs). The concentration ranges selected for each drug and investigational agent were based upon clinically achievable concentrations if the clinical Cmax of the agent was known.
Compounds. The drugs and investigational agents used in this study are listed on Table 1. All of the agents used, including staurosporine (NSC755774) and gemcitabine (NSC613327), were obtained from the Developmental Therapeutics Program, NCI. FDA-approved anticancer drugs are available from the NCI at http://dtp.nci.nih.gov/branches/dscb/oncology_drugset_explanation.html. Drugs and investigational agents were >95% pure by proton nuclear magnetic resonance (NMR) and liquid chromatography/mass spectrometry (LC/MS). […] If the clinical Cmax for an agent had not been determined, the highest concentration tested was 10 microM. […]
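Also: spheroids exposed to agents for seven days before readout; 100% = DMSO vehicle control wells as normalization base.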

Row | SMILES | viability, T/C (compound 0.1 µM) | viability, T/C (compound 10 µM)
1 | NC1CC1c1ccc(-c2cccc(O)c2)cc1 (configuration not stated) | 105% [middle of 23 runs] | 
2 | NC1CCC(NC2CC2c2ccccc2)CC1 (configuration not stated) |  | 112% and 105%
